# The list shows a part of the results.
# B1: LlpA (Arthrobacter sp) (protein)
# chain: MGSSHHHHHHSSGLVPRGSHMTLHPETALRPGAAATSPNSRYRLLYQTDGNLVLYGPDGPLWDSGTNGHGAGACIMQADGNLVLYGPNDEYVWDTETDNNPGSRLVIQDDGNAVIYRPDGSPLWATETCQPPGSADSHVLQSGSTLTPTHGIRSANGLYGLLYQTDGNLVFYGPDGPLWDSGTNGRGAGACIMQPDGNLVLYGPHDEYVWDTETDNNPGSRLVIQDDGNAVIYRPDGNPTWVTGTH
# Legend:
# Assay in all cases: glycan array binding signal (z-score within array); higher = stronger binding
# Settings in all cases: glycan notation: IUPAC condensed, linker removed
# Gal(a1-3)Gal(b1-4)GlcNAc = target: Gal(a1-3)Gal(b1-4)GlcNAc
# Summary of the method: (§1)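 Glycan array data came from 3228 arrays in the Consortium for Functional Glycomics database, and only arrays with an available protein sequence were kept. Glycan names were put into IUPAC-condensed notation, and columns mapping to the same glycan were averaged. The binding signal is a within-array Z-score, averaged across arrays of one protein sequence run at different concentrations or buffers and across linkers. A negative Z-score can be read as non-binding.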
# [1] = target: Gal(a1-3)Gal(b1-4)GlcNAc(b1-2)Man
# Summary of the method: as §1
# [2] = target: Gal(a1-3)Gal(b1-4)GlcNAc(b1-2)Man(a1-3)[Gal(a1-3)Gal(b1-4)GlcNAc(b1-2)Man(a1-6)]Man(b1-4)GlcNAc(b1-4)GlcNAc
# Summary of the method: as §1
# [3] = target: Gal(a1-3)Gal(b1-4)GlcNAc(b1-3)GalNAc
# Summary of the method: as §1
# [4] = target: Gal(a1-3)Gal(b1-4)GlcNAc(b1-6)GalNAc
# Summary of the method: as §1
# [5] = target: Gal(a1-3)Gal(b1-4)[Fuc(a1-3)]GlcNAc
# Summary of the method: as §1
# [6] = target: Gal(a1-3)Gal(b1-4)[Fuc(a1-3)]GlcNAc(b1-2)Man(a1-3)[Gal(a1-3)Gal(b1-4)[Fuc(a1-3)]GlcNAc(b1-2)Man(a1-6)]Man(b1-4)GlcNAc(b1-4)GlcNAc
# Summary of the method: as §1
# Gal(a1-3)GalNAc = target: Gal(a1-3)GalNAc
# Summary of the method: as §1
# [7] = target: Gal(a1-3)[Gal(a1-4)]Gal(b1-4)GlcNAc
# Summary of the method: as §1
# [8] = target: Gal(a1-4)Gal(b1-3)GlcNAc(b1-2)Man(a1-3)[Gal(a1-4)Gal(b1-3)GlcNAc(b1-2)Man(a1-6)]Man(b1-4)GlcNAc(b1-4)GlcNAc
# Summary of the method: as §1
# Gal(a1-4)Gal(b1-4)Glc = target: Gal(a1-4)Gal(b1-4)Glc
# Summary of the method: as §1
# Gal(a1-4)Gal(b1-4)GlcNAc = target: Gal(a1-4)Gal(b1-4)GlcNAc
# Summary of the method: as §1
# [9] = target: Gal(a1-4)Gal(b1-4)GlcNAc(b1-2)Man(a1-3)[Gal(a1-4)Gal(b1-4)GlcNAc(b1-2)Man(a1-6)]Man(b1-4)GlcNAc(b1-4)GlcNAc
# Summary of the method: as §1
# [10] = target: Gal(a1-4)Gal(b1-4)GlcNAc(b1-3)Gal(b1-4)Glc
# Summary of the method: as §1
# Gal(a1-4)GlcNAc = target: Gal(a1-4)GlcNAc
# Summary of the method: as §1
# Gal(a1-6)Glc = target: Gal(a1-6)Glc
# Summary of the method: as §1
# Gal(b1-2)Gal = target: Gal(b1-2)Gal
# Summary of the method: as §1
# Gal(b1-3)Gal = target: Gal(b1-3)Gal
# Summary of the method: as §1
# Gal(b1-3)Gal(b1-4)GlcNAc = target: Gal(b1-3)Gal(b1-4)GlcNAc
# Summary of the method: as §1
# Gal(b1-3)GalNAc = target: Gal(b1-3)GalNAc
# Summary of the method: as §1
# [11] = target: Gal(b1-3)GalNAc(a1-3)[Fuc(a1-2)]Gal(b1-4)Glc
# Summary of the method: as §1
# [12] = target: Gal(b1-3)GalNAc(a1-3)[Fuc(a1-2)]Gal(b1-4)GlcNAc
# Summary of the method: as §1
# Gal(b1-3)GalNAc(b1-3)Gal = target: Gal(b1-3)GalNAc(b1-3)Gal
# Summary of the method: as §1
# [13] = target: Gal(b1-3)GalNAc(b1-3)Gal(a1-4)Gal(b1-4)Glc
# Summary of the method: as §1
# [14] = target: Gal(b1-3)GalNAc(b1-4)Gal(b1-4)Glc
# Summary of the method: as §1
# [15] = target: Gal(b1-3)GalNAc(b1-4)[Neu5Ac(a2-3)]Gal(b1-4)Glc
# Summary of the method: as §1
# Gal(b1-3)GlcNAc = target: Gal(b1-3)GlcNAc
# Summary of the method: as §1
# [16] = target: Gal(b1-3)GlcNAc(a1-3)Gal(b1-4)GlcNAc
# Summary of the method: as §1
# [17] = target: Gal(b1-3)GlcNAc(a1-6)Gal(b1-4)GlcNAc
# Summary of the method: as §1
# Gal(b1-3)GlcNAc(b1-2)Man = target: Gal(b1-3)GlcNAc(b1-2)Man
# Summary of the method: as §1
# [18] = target: Gal(b1-3)GlcNAc(b1-2)Man(a1-3)[Gal(b1-3)GlcNAc(b1-2)Man(a1-6)]Man(b1-4)GlcNAc(b1-4)GlcNAc
# Summary of the method: as §1
# [19] = target: Gal(b1-3)GlcNAc(b1-2)Man(a1-3)[Gal(b1-3)GlcNAc(b1-2)Man(a1-6)]Man(b1-4)GlcNAc(b1-4)[Fuc(a1-6)]GlcNAc
# Summary of the method: as §1
# [20] = target: Gal(b1-3)GlcNAc(b1-2)Man(a1-3)[GlcNAc(b1-4)][Gal(b1-3)GlcNAc(b1-2)Man(a1-6)]Man(b1-4)GlcNAc(b1-4)GlcNAc
# Summary of the method: as §1
# [21] = target: Gal(b1-3)GlcNAc(b1-2)[Gal(b1-3)GlcNAc(b1-6)]Man(a1-6)[Gal(b1-3)GlcNAc(b1-2)Man(a1-3)]Man(b1-4)GlcNAc(b1-4)GlcNAc
# Summary of the method: as §1
# [22] = target: Gal(b1-3)GlcNAc(b1-3)Gal(b1-3)GlcNAc
# Summary of the method: as §1
# [23] = target: Gal(b1-3)GlcNAc(b1-3)Gal(b1-4)Glc
# Summary of the method: as §1
# [24] = target: Gal(b1-3)GlcNAc(b1-3)Gal(b1-4)GlcNAc
# Summary of the method: as §1
binder,measurement,setting,value
B1,glycan array binding signal (z-score),Gal(a1-3)Gal(b1-4)GlcNAc,0.113
same,glycan array binding signal (z-score),[1],-0.374
same,glycan array binding signal (z-score),[2],0.575
same,glycan array binding signal (z-score),[3],-0.332
same,glycan array binding signal (z-score),[4],-1.49
same,glycan array binding signal (z-score),[5],0.242
same,glycan array binding signal (z-score),[6],0.849
same,glycan array binding signal (z-score),Gal(a1-3)GalNAc,-0.594
same,glycan array binding signal (z-score),[7],1.43
same,glycan array binding signal (z-score),[8],-0.794
same,glycan array binding signal (z-score),Gal(a1-4)Gal(b1-4)Glc,0.629
same,glycan array binding signal (z-score),Gal(a1-4)Gal(b1-4)GlcNAc,0.322
same,glycan array binding signal (z-score),[9],1.09
same,glycan array binding signal (z-score),[10],0.049
same,glycan array binding signal (z-score),Gal(a1-4)GlcNAc,-0.048
same,glycan array binding signal (z-score),Gal(a1-6)Glc,-0.727
same,glycan array binding signal (z-score),Gal(b1-2)Gal,-1.45
same,glycan array binding signal (z-score),Gal(b1-3)Gal,0.289
same,glycan array binding signal (z-score),Gal(b1-3)Gal(b1-4)GlcNAc,0.043
same,glycan array binding signal (z-score),Gal(b1-3)GalNAc,-0.349
same,glycan array binding signal (z-score),[11],-0.189
same,glycan array binding signal (z-score),[12],-0.494
same,glycan array binding signal (z-score),Gal(b1-3)GalNAc(b1-3)Gal,-0.601
same,glycan array binding signal (z-score),[13],0.693
same,glycan array binding signal (z-score),[14],-0.72
same,glycan array binding signal (z-score),[15],0.415
same,glycan array binding signal (z-score),Gal(b1-3)GlcNAc,-0.071
same,glycan array binding signal (z-score),[16],-0.154
same,glycan array binding signal (z-score),[17],-0.211
same,glycan array binding signal (z-score),Gal(b1-3)GlcNAc(b1-2)Man,0.816
same,glycan array binding signal (z-score),[18],1.75
same,glycan array binding signal (z-score),[19],0.47
same,glycan array binding signal (z-score),[20],-0.169
same,glycan array binding signal (z-score),[21],0.558
same,glycan array binding signal (z-score),[22],-0.589
same,glycan array binding signal (z-score),[23],0.063
same,glycan array binding signal (z-score),[24],-0.022

# 3 records picked at random from the list so far:
binder,measurement,setting,value
B1,glycan array binding signal (z-score),Gal(a1-4)Gal(b1-4)GlcNAc,0.322
same,glycan array binding signal (z-score),[19],0.47
same,glycan array binding signal (z-score),Gal(b1-3)Gal,0.289

# Source: the supplement of paper PMC8728848
